The results in this text go back to patent publication US8313736B2, “Chemically stable ingredients as lemon odorant” (Firmenich SA, priority 2008, dated 2012).

“Also recorded” adds a separate entry of the source.

A short description of data set [1]: Olfactive effect in lemon type perfuming composition for an all purpose cleaner. The conditions noted are these: 250 parts by weight added to 2500 parts of all purpose cleaner composition. The protocol:
A perfuming composition of the lemon type for an “all purpose cleaner” was prepared by admixing the following ingredients: […]

Data set [2] in a line: Olfactive effect in citrus, herbaceous perfuming composition for a shower gel. The conditions noted are these: 100 parts by weight added to 3000 parts of shower gel composition. The protocol: A perfuming composition of the “citrus, herbaceous” type for a shower gel was prepared by admixing the following ingredients: […]
Data set [3] in a line: Odour evaluation of the compound and comparison with known ingredients.

For `CC(C)=CCCC(C)CC#N` (stereo not drawn) [citronellyl nitrile, reference compound], in data set [1], the “Overall olfactive effect of the addition to the composition” value (shortened to “Overall olfactive effect of the addition”) was “disappointing, flat, fatty, much less lemony”.
As for `CC(C)=CCCC(C)=CC#N` [3,7-dimethyl-2,6-octadienenitrile, reference compound], the “Overall olfactive effect of the addition” value in data set [2] was “too much fatty and rosy like”.
In the case of `CC(C)=C(C)CCC(C)CC#N` (stereo not drawn) [3,6,7-trimethyl-6-octenenitrile], the “Odour and comparison with known ingredients” value (“Odour and comparison” below) in data set [3] is “Although structurally close to citronellyl nitrile, this compound is more powerful, elegant, lemony and zest than citronellyl nitrile”. The “Overall olfactive effect of the addition” value in data set [1] is “much more lemony, powerful, elegant and natural than the one obtained with citronellyl nitrile”.
Take `CC(CC#N)CCC(C)C(C)C` (stereo not drawn) [3,6,7-trimethyloctanenitrile]: the “Odour and comparison” value in data set [3] was “Citrus/citral, nitrile, the citral note is stronger than the one of the prior art analogue 3,7- dimethyloctanenitrile. The odor of this invention's compound is close to the one of geranyl nitrile”.
Regarding `C/C(=C/C#N)CCC(C)C(C)C` (stereo not drawn) [3,6,7-trimethyl-2-octenenitrile], the “Odour and comparison” value in data set [3] was “Citrus, lemony, green and nitrile, as overall the odor is less fatty/nitrile and more elegant than the one of its analogue 3,7-dimethyl-2- octenenitrile”.
Still for that read-out and setting: as for `CC(C)=C(C)CC/C(C)=C/C#N` [(2E)-3,6,7-Trimethyl-2,6-octadienenitrile], the entry is “Very nice and natural lemony note. The E isomer possesses a stronger lemony character than the above E/Z mixture”.
In the case of `CC(=CC#N)CCC(C)=C(C)C` [3,6,7-trimethyl-2,6-octadienenitrile], the “Overall olfactive effect of the addition” value was “a clear lemon/lime connotation” in data set [2]; “a lemon character and a functional aspect; also recorded: as good as, and even more lemony than, the addition of the same amount of geranyl nitrile” in data set [1].
In the case of `CC(C)=C(C)CC/C(C)=C\C#N` [(2Z)-3,6,7-Trimethyl-2,6-octadienenitrile], the “Odour and comparison” value in data set [3] is “Lemony note with a fatty and cumin aspect. The Z isomer possesses a weaker lemony character than the above E/Z mixture. Said compound is olfactively between geranyl nitrile and citral but, although being more citral, closer to geranyl nitrile”.
With `C/C(=C/C#N)CCC1(C)CC1(C)C` (stereo not drawn) [3-methyl-5-(1,2,2-trimethylcyclopropyl)-2-pentenenitrile], the “Odour and comparison” value in data set [3] was “Citrus, lemony, fruity, nitrile, more natural and less fatty than geranyl nitrile. The citral character of this compound is stronger than the one of geranyl nitrile but is slightly inferior to the one of 3,6,7- trimethyl-2,6-octadienenitrile”.
On the same count and under the same terms, the result for `CC(CC#N)CCC1(C)CC1(C)C` (stereo not drawn) [3-methyl-5-(1,2,2-trimethylcyclopropyl)pentanenitrile] reads “Nice citrus note, slightly nitrile but well lemony, more citral than the above cyclopropane derivative. Nice and pleasant, more natural than geranyl nitrile”.
Turning to `CCC(C)=CCCC(C)=CC#N` [lemonile, 3,7-dimethyl-2,6-nonadienenitrile, reference compound], the “Overall olfactive effect of the addition” value in data set [2] is “too much fatty and citronella like”; in data set [1], “almost as lemony as the one obtained with 3,6,7-trimethyl-2,6-octadienenitrile, but more disharmonious, less natural and more chemical”.
As for `CC(C)=C(C)C/C=C(\C)CC#N` [(3E)-3,6,7-Trimethyl-3,6-octadienenitrile], the “Odour and comparison” value in data set [3] was “Lime, citronellol, geranyl nitrile but less aggressive/ chemical and less nitrile than the latter. Also some floral/rosy aspects”.
